PubChem BioAssay AID652259, Drosophila RNAi Screening Center, 2013

- Test: 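Knock-downs that push a Wingless-driven reporter up or down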 (primary screen)
- Cell system: Drosophila clone 8 imaginal disc epithelial cells
- Reagent: long dsRNA against Drosophila genes
- Challenge: pathway stimulated by co-transfected Wingless expression plasmid
- Measurement: 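Firefly luciferase from a tcf-site Wingless reporter, measured alongside co-transfected Renilla luciferase that tracks transfection; pathway stimulated by a Wingless plasmid; the firefly-to-Renilla ratio is not deposited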
- Direction: firefly reporter light: higher = more Wg reporter light, before normalisation; Renilla control light: higher = more transfected or surviving cells
- Rule for the call: 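a knock-down is a candidate when at least two out of four statistical tests show it departing from its plate mean; one test alone signals a weak candidate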
- Meaning of the calls: active = candidate regulator (raises or lowers reporter); inactive = not a candidate
The screen tested about 22,000 reagents; below is a random part of those that have a named target and a result. Of all reagents, 233 (1.1%) got an active call. 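Light values are raw, unnormalised plate reads; the ratio scores behind the reporter calls were not deposited.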 A number with no mark means an inactive call. Names joined by + are all predicted targets of the reagent. Not stated in the record: the amount of reagent, the time to read-out, the dose of the treatment.

no.	target gene	dsRNA	firefly reporter light, replicate 1	firefly reporter light, replicate 2	Renilla control light, replicate 1	Renilla control light, replicate 2
1	CG30091	DRSC21809	5.06e5	4.56e5	2.30e5	1.94e5
2	CG13334	DRSC06369	7508		1971	
3	CG15136	DRSC02436	2032	5636	727	2528
4	chic	DRSC03507	2873	6491	925	2659
5	CG17658	DRSC04292	2881	7792	787	2480
6	CR30374	DRSC05080	19112		10328	
7	Upf1	DRSC19667	2900	6794	1248	2865
8	CG13484	DRSC10026	5188		2215	
9	Cdk4	DRSC07358	9066		3504	
10	NijC	DRSC14851	10774		3613	
11	SuUR	DRSC11292	8540		3996	
12	shg	DRSC04714	11025		2720	
13	fs(1)Yb	DRSC18777	21723		13433	
14	CG2200	DRSC19840	19144		9157	
15	CG15571	DRSC18059	20400		10273	
16	CG12470	DRSC18620	34838		19079	
17	CG7781	DRSC03068	3232	7811	1416	2893
18	CG8187	DRSC07099	12768		3522	
19	Arr1	DRSC01867	3667	7492	1056	4058
20	rost	DRSC03603	11088		3772	
21	betaTub56D	DRSC07583	5117		1544	
22	Gasp	DRSC12349	9389		2513	
23	gcm	DRSC03536	2886	6203	1194	2832
24	mRpL15	DRSC11771	5084		2048	
25	CG15638	DRSC01875	2235	8388	981	2784
26	CG17841	DRSC17737	1818	5680	928	1842
27	CG10154	DRSC09707	5526		2210	
28	CG17385	DRSC06664	6864		2240	
29	APC10	DRSC06071	9367		2828	
30	sky	DRSC02383	14624		4250	
31	sky	DRSC03214	10370		3736	
32	sky	DRSC03215	2490	7571	1002	2720
33	Shc	DRSC11284	4787		2037	
34	CG13244	DRSC21642	4.19e5	4.21e5	1.92e5	1.73e5
35	olf413	DRSC11543	2896		1330	
36	olf413	DRSC11679	20634	7.43e5	6797	3.37e5
37	olf413	DRSC11721	19616		6329	
38	olf413	DRSC11833	20549	6.58e5	6489	3.02e5
39	zyd	DRSC20716	20881		10241	
40	CG6041	DRSC18396	16137		8856	
41	nAChRbeta2	DRSC17010	1684	6816	1130	1797
42	pzg	DRSC11848	5076		556	
43	CG43329	DRSC11672	15127		5193	
44	IFT43	DRSC02892	7154		2723	
45	Klf15	DRSC17742	16928		7533	
46	CG32453	DRSC21673	6.90e5	7.48e5	3.71e5	2.99e5
47	CG1354	DRSC17902	18006		7913	
48	Lztr1	DRSC18176	27992		13981	
49	Lztr1	DRSC18647	17012		12855	
50	Spn77Bb + Spn77Bc	DRSC10689	20643		7997	
51	Spn77Bb + Spn77Bc	DRSC11793	14641		5888	
52	CG3702	DRSC00628	11383		5443	
53	CG14367	DRSC14829	14508		3392	
54	CG16986	DRSC08502	7453		3408	
55	CG43100 (retired record)	DRSC01001	14279		6097	
56	Lamtor4	DRSC08436	5994		2950	
57	CG14070	DRSC02373	2694	7888	1129	3653
58	loqs	DRSC02997	2664	5316	1260	2583
59	CG5079	DRSC15713	15963		6648	
60	CG18545	DRSC15343	11010		3786	
61	CG14803	DRSC18556	25062		16648	
62	form3	DRSC10195	2925	9293	2140	3658
63	form3	DRSC10297	4500		2716	
64	form3	DRSC11024	1668	8112	1644	2758
65	CR17438	DRSC18125	19584		8752	
66	CR12628 + Mgstl	DRSC03702	2008	3488	1013	1984
67	CR12628 + Mgstl	DRSC20568	24544		14875	
68	CG18764	DRSC15391	17922		3761	
69	CG33255 (retired record) + CR42842 + hpRNA:CR32205 + 1 more	DRSC09617	7008		1733	
70	Hex-t2	DRSC22517	8.03e5	7.79e5	1.32e5	1.50e5
71	KCNQ	DRSC06121	3268	6987	976	2788
72	KCNQ	DRSC06230	3568	6747	950	3139
73	Ir60d	DRSC04218	3387	9437	1061	3493

Part of the list above, set out differently.
target gene	dsRNA	firefly reporter light, replicate 1	firefly reporter light, replicate 2	Renilla control light, replicate 1	Renilla control light, replicate 2
CR17438	DRSC18125	19584		8752	
CR12628 + Mgstl	DRSC03702	2008	3488	1013	1984
CR12628 + Mgstl	DRSC20568	24544		14875	
CG18764	DRSC15391	17922		3761	
CG33255 (retired record) + CR42842 + hpRNA:CR32205 + 1 more	DRSC09617	7008		1733	
Hex-t2	DRSC22517	8.03e5	7.79e5	1.32e5	1.50e5
KCNQ	DRSC06121	3268	6987	976	2788
KCNQ	DRSC06230	3568	6747	950	3139
Ir60d	DRSC04218	3387	9437	1061	3493
